The target in this assay is Nup214 (human (endogenous in HeLa)) (UniProt P35658). In words: co-IP.

Chains of the proteins cited; added tags and fusions are not shown. Residues count along the entry.
UniProt P35658: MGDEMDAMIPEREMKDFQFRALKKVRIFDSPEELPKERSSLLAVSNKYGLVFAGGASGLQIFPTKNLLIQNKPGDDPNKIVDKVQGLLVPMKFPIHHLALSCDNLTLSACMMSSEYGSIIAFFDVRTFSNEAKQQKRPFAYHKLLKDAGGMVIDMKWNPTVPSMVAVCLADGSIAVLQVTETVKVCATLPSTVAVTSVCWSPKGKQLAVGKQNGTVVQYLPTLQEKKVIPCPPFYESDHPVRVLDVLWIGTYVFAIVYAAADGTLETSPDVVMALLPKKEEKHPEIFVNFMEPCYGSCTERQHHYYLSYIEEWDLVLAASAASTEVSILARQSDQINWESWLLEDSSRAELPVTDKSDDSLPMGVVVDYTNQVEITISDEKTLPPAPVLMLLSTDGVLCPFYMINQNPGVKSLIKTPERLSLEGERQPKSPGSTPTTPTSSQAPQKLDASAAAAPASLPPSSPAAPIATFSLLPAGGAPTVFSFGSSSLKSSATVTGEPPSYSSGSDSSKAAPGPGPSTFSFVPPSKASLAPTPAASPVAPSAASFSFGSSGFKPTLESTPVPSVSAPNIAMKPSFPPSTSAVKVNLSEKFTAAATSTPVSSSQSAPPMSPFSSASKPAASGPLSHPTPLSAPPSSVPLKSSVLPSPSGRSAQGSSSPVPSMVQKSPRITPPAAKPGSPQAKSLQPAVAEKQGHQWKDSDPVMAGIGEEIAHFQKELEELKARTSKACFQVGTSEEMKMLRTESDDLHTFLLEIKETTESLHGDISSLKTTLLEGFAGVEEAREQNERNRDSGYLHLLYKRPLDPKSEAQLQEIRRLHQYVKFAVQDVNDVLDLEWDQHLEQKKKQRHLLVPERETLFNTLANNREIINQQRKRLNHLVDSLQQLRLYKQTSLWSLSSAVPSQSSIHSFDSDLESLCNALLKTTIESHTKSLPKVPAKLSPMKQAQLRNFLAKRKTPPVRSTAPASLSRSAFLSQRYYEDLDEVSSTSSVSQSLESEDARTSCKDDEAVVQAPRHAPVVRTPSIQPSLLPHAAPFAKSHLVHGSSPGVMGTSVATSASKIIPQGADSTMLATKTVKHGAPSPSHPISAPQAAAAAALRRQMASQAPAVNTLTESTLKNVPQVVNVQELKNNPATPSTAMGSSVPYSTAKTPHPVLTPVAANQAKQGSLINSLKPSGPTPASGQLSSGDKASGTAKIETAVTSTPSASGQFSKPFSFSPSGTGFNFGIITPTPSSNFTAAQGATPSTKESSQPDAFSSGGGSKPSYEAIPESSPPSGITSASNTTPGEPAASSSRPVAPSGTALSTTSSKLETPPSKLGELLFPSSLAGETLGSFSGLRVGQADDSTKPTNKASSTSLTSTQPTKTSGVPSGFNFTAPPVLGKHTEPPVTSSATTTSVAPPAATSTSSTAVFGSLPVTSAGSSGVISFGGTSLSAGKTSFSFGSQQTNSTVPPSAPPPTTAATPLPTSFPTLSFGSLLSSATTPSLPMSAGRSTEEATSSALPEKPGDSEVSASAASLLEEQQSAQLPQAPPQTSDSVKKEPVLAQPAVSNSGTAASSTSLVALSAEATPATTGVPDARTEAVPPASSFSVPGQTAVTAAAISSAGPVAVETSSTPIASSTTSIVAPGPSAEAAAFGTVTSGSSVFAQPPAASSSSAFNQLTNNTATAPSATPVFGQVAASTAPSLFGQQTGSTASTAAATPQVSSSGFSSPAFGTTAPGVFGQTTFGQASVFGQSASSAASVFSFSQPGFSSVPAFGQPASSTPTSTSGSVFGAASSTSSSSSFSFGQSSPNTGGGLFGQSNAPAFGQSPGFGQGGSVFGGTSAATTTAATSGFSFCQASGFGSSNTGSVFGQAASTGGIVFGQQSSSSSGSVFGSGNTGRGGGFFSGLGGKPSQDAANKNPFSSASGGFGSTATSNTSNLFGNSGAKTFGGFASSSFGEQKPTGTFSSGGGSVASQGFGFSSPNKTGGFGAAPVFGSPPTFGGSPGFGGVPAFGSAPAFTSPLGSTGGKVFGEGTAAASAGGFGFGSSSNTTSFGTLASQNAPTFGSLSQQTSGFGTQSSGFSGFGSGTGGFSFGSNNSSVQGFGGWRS
UniProt P52948, residues 1-880: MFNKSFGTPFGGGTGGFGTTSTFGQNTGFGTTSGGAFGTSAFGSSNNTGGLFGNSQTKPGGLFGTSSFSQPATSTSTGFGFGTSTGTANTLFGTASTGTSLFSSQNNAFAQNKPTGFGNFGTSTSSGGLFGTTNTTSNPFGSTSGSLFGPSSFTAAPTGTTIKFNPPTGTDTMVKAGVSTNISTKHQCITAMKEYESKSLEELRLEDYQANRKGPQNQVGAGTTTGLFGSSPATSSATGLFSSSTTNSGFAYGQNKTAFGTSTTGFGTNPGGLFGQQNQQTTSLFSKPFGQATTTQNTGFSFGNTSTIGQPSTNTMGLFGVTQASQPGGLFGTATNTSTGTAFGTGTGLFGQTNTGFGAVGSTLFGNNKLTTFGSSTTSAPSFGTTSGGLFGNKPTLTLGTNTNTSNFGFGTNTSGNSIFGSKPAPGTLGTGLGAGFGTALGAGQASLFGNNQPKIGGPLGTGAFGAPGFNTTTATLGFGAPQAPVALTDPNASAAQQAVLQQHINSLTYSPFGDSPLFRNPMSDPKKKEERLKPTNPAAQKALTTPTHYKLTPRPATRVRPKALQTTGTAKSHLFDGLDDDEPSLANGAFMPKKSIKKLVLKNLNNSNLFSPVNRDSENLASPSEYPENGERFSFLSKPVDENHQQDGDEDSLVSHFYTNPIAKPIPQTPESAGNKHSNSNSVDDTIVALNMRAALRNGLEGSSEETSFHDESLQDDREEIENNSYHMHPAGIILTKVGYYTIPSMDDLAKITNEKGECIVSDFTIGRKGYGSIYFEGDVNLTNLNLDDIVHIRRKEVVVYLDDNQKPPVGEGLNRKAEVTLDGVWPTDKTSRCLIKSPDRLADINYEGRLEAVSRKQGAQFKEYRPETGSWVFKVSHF

These are yes or no findings as the source states them, for the method shown. Binding seen in cells or lysates may run through a third protein. Some results given as binding are weak or reduced against the parent protein; the word gives no strength.

Our source for the binding values is PMC9168619 (The Journal of Biological Chemistry, 2022).

Regarding Nup98 (from UniProt P52948 1-880), the binding result was “binds”.
